Experimental data published in patent publication US20060234922A1, “Remedy for corneal failure” (priority 2002, published 2006).
At least one compound was matched to its structure with a doubt left.

What was measured:
[1] = test system: cultured rabbit trigeminal nerve cells; assay: Nerve axon extension promoting action in cultured rabbit trigeminal nerve cells (phase contrast microscopy); format: cell-based; conditions: 48 hr culture
Description: Nerve Axon Extension Promoting Action in Cultured Rabbit Trigeminal Nerve Cells (In Vitro Experiment)
Japanese White Rabbits (2-3 days old) purchased from Fukusaki Rabbit Warren were used.
As a test substance, somatostatin (manufactured by CALBIOCHEM, Lot B33795) and NGF (NGF-7S, manufactured by Sigma) were used. The test substance was dissolved in phosphate buffer (PBS) to 100 μM somatostatin, 20 μg/mL NGF-7S. The prepared reagents were preserved at −80° C. and dissolved before use.
The trigeminal nerve cell was isolated according to the report of Chan et al. (Kuan Y. Chan and Richard H. Haschke. Exp. Eye Res. 41: 687-699, 1985). To be specific, under ether anesthesia, after cardiac perfusion of rabbit with saline, the trigeminal ganglia was removed, trigeminal ganglia was dispersed using a nerve dispersion solution (SUMITOMO BAKELITE Co., Ltd.), and the cells were plated in a 24-well plate (SUMITOMO BAKELITE Co., Ltd.) coated with polylysine/laminin. The number of cells was about 3000 cells per well and the culture conditions were 5% CO2, 95% air at 37° C. […]
The effect on the formation of neurite and the axon extension from trigeminal nerve cell by somatostatin and NGF were morphologically evaluated by the observation using a phase contrast microscope.

[2] = test system: corneal sensitivity after cutting the corneal nerve of rabbits; assay: Functional changes in corneal sensitivity after rabbit corneal nerve cutting (Cochet-Bonnet corneal sensitivity meter); format: in vivo; conditions: somatostatin solution 100 μm, 50 μL instilled into the eye 4 times/day for 4 weeks; three or four weeks after keratotomy; p<0.05, Dunnett's test

SMILES: C[C@H](N)C(=O)NCC(=O)N[C@H]1CSSC[C@@H](C(=O)O)NC(=O)[C@H](CO)NC(=O)[C@H]([C@@H](C)O)NC(=O)[C@H](Cc2ccccc2)NC(=O)[C@H]([C@@H](C)O)NC(=O)[C@H](CCCCN)NC(=O)[C@H](Cc2c[nH]c3ccccc23)NC(=O)[C@H](Cc2ccccc2)NC(=O)[C@H](Cc2ccccc2)NC(=O)[C@H](CC(N)=O)NC(=O)[C@H](CCCCN)NC1=O [somatostatin]
- formation of neurite and axon extension from trigeminal nerve cell, morphological evaluation ([1]; somatostatin 1 μM final concentration, compared to non-addition group): apparent promotion of axon extension
- formation of neurite and axon extension from trigeminal nerve cell, morphological evaluation ([1]; somatostatin 10 μM final concentration): many cells showing long axon extension were observed
- corneal sensitivity recovery compared to vehicle administration group [2]: significant corneal sensitivity recovery effect
